No constants are given. Whether binding was seen depends on the method and setting. Some entries that bind do so weakly or less than the wild type.
What was measured:
[1] = target: extracellular domain of human PRLR (monomeric, soluble) (human) (UniProt P16471); assay: ELISA, Fab in E. coli supernatant on immobilized human PRLR ECD; reference non-maturated 005-C04 Fab
[2] = target: extracellular domain of human PRLR (monomeric, soluble) (human) (UniProt P16471); assay: ELISA: plate coated with human PRLR extracellular domain, Fab-containing E. coli supernatant, anti-flag-HRP, Amplex Red

Sequences of proteins named here, by UniProt entry; tags and fusion partners are left off. A change or cut given only in a name is not applied to a line headed by its entry.
UniProt P16471: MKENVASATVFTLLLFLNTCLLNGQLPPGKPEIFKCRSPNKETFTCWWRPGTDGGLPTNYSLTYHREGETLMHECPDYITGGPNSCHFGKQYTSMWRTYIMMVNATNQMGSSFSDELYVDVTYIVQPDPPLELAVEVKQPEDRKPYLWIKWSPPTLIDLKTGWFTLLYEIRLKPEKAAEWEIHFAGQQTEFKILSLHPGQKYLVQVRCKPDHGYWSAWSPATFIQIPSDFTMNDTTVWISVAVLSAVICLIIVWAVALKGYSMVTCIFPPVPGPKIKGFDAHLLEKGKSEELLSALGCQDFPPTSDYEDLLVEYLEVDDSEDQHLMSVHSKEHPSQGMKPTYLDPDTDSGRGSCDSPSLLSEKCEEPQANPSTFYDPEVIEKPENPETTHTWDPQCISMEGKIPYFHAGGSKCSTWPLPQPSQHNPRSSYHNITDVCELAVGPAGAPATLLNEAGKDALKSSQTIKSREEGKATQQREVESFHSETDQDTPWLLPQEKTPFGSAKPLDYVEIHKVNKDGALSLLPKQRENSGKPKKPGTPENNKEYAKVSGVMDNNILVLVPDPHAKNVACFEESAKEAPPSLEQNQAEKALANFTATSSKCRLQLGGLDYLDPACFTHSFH

B1: 005-C04-L2-1-16-5 (Fab, V domains shown)
VH: EVQLLESGGGLVQPGGSLRLSCAASGFTFSSYWWHWVRQAPGKGLEWVSDMARASSYTNYADSVKGRFTISRDNSKNTLYLQMNSLRAEDTAVYYCARGLDARRMDYWGQGTLVTVTS
VL: QSVLTQPPSASGTPGQRVTISCTGSSSNIGAGYVVHWYQQLPGTATKLLIYRNNVRQSGVPDRFSGSKSGTSASLAISGLRSEDEADYYCAAWDDSLNGWLFGGGTKLTVLG
binding [1]: binds | binding [2]: binds

Source: patent US20130129739A1
